PubChem BioAssay AID1508597 – Cure First | 2020

- Assay: 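Survival screen with siRNA in ovarian cancer cells derived from patients, with or without rucaparib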 (primary screen)
- Cells: human ovarian carcinoma lines grown from tumours: OCI-P5x (papillary serous) and OCI-C5x (clear cell)
- Reagent: siRNA pool against human genes, 1.25 pmol siRNA per well
- Duration: 72 h or 96 h, depending on the cell culture
- Challenge: rucaparib 20 µM (about IC30) or vehicle, present until read-out
- Measured: 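ATP luminescence measured at 72 or 96 h according to the culture, then normalised and expressed as percent viability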
- Reading the numbers: viability, normalised: higher = more viable cells remaining
- Active means: 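a well counts as a hit if its normalised viability is under 80 percent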
- Meaning of the calls: active = viability under 80%; inactive = viability 80% or more
Shown is one part, drawn at random, of about 2,100 reagents. 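Calls flag viability under 80% in either arm, not effects specific to rucaparib; the reference for percent is not stated.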 A reagent listed more than once was tested more than once; the source does not tell the runs apart. Not stated in the record: the 100% reference.

FECH, rucaparib or vehicle Rucaparib, cell line OCI-C5x (clear cell), technical replicate 1 showed viability, normalised (%) = 42; active.
For FECH, rucaparib or vehicle Rucaparib, cell line OCI-C5x (clear cell), technical replicate 2, the entry reads viability, normalised (%) = 57; active.
FECH, rucaparib or vehicle Rucaparib, cell line OCI-C5x (clear cell), technical replicate 3 gave viability, normalised (%) = 39.5; active.
FECH, rucaparib or vehicle Rucaparib, cell line OCI-P5x (serous), technical replicate 1 gave viability, normalised (%) = 56; active.
With FECH, rucaparib or vehicle Rucaparib, cell line OCI-P5x (serous), technical replicate 2, the values are viability, normalised (%) = 77.3; active.
FECH, rucaparib or vehicle Rucaparib, cell line OCI-P5x (serous), technical replicate 3 showed viability, normalised (%) = 70.7; active.
With FECH, rucaparib or vehicle Vehicle, cell line OCI-C5x (clear cell), technical replicate 1 the deposit lists viability, normalised (%) = 49; active.
FECH, rucaparib or vehicle Vehicle, cell line OCI-C5x (clear cell), technical replicate 2 gave viability, normalised (%) = 70.8; active.
For FECH, rucaparib or vehicle Vehicle, cell line OCI-C5x (clear cell), technical replicate 3 the deposit lists viability, normalised (%) = 68.9; active.
With FECH, rucaparib or vehicle Vehicle, cell line OCI-P5x (serous), technical replicate 1 the deposit lists viability, normalised (%) = 75.5; active.
With FECH, rucaparib or vehicle Vehicle, cell line OCI-P5x (serous), technical replicate 2 the deposit lists viability, normalised (%) = 81.9; inactive.
With FECH, rucaparib or vehicle Vehicle, cell line OCI-P5x (serous), technical replicate 3, the values are viability, normalised (%) = 83.7; inactive.
For BRPF1, rucaparib or vehicle Rucaparib, cell line OCI-C5x (clear cell), technical replicate 1, the entry reads viability, normalised (%) = 52.4; active.
For BRPF1, rucaparib or vehicle Rucaparib, cell line OCI-C5x (clear cell), technical replicate 2 the deposit lists viability, normalised (%) = 44.7; active.
BRPF1, rucaparib or vehicle Rucaparib, cell line OCI-C5x (clear cell), technical replicate 3 gave viability, normalised (%) = 49.3; active.
BRPF1, rucaparib or vehicle Rucaparib, cell line OCI-P5x (serous), technical replicate 1 scored viability, normalised (%) = 85.4; inactive.
BRPF1, rucaparib or vehicle Rucaparib, cell line OCI-P5x (serous), technical replicate 2 scored viability, normalised (%) = 87.5; inactive.
For BRPF1, rucaparib or vehicle Rucaparib, cell line OCI-P5x (serous), technical replicate 3, the values are viability, normalised (%) = 93.3; inactive.
BRPF1, rucaparib or vehicle Vehicle, cell line OCI-C5x (clear cell), technical replicate 1 scored viability, normalised (%) = 41.3; active.
With BRPF1, rucaparib or vehicle Vehicle, cell line OCI-C5x (clear cell), technical replicate 2, the entry reads viability, normalised (%) = 39; active.
With BRPF1, rucaparib or vehicle Vehicle, cell line OCI-C5x (clear cell), technical replicate 3, the entry reads viability, normalised (%) = 47.2; active.
BRPF1, rucaparib or vehicle Vehicle, cell line OCI-P5x (serous), technical replicate 1 showed viability, normalised (%) = 76.8; active.
For BRPF1, rucaparib or vehicle Vehicle, cell line OCI-P5x (serous), technical replicate 2, the values are viability, normalised (%) = 99.9; inactive.
For BRPF1, rucaparib or vehicle Vehicle, cell line OCI-P5x (serous), technical replicate 3, the entry reads viability, normalised (%) = 59.8; active.

Copied from the list.
BRPF1, rucaparib or vehicle Vehicle, cell line OCI-P5x (serous), technical replicate 1, viability, normalised (%) = 76.8
BRPF1, rucaparib or vehicle Rucaparib, cell line OCI-P5x (serous), technical replicate 3, viability, normalised (%): 93.3
Value for BRPF1, rucaparib or vehicle Vehicle, cell line OCI-C5x (clear cell), technical replicate 3 under “viability, normalised (%)”: 47.2
Entry for FECH, rucaparib or vehicle Rucaparib, cell line OCI-P5x (serous), technical replicate 1 in “Outcome”: active
Result for FECH, rucaparib or vehicle Vehicle, cell line OCI-P5x (serous), technical replicate 1 under “viability, normalised (%)”: 75.5

The results go on.
PARP2, rucaparib or vehicle Rucaparib, cell line OCI-C5x (clear cell), technical replicate 1 gave viability, normalised (%) = 44.5; active.
For PARP2, rucaparib or vehicle Rucaparib, cell line OCI-C5x (clear cell), technical replicate 1, the values are viability, normalised (%) = 61; active.
PARP2, rucaparib or vehicle Rucaparib, cell line OCI-C5x (clear cell), technical replicate 2 showed viability, normalised (%) = 53.8; active.
PARP2, rucaparib or vehicle Rucaparib, cell line OCI-C5x (clear cell), technical replicate 2 scored viability, normalised (%) = 41.9; active.
PARP2, rucaparib or vehicle Rucaparib, cell line OCI-C5x (clear cell), technical replicate 3 gave viability, normalised (%) = 33.9; active.
PARP2, rucaparib or vehicle Rucaparib, cell line OCI-C5x (clear cell), technical replicate 3 scored viability, normalised (%) = 67.5; active.
For PARP2, rucaparib or vehicle Rucaparib, cell line OCI-P5x (serous), technical replicate 1, the values are viability, normalised (%) = 30.7; active.
PARP2, rucaparib or vehicle Rucaparib, cell line OCI-P5x (serous), technical replicate 1 gave viability, normalised (%) = 79; active.
PARP2, rucaparib or vehicle Rucaparib, cell line OCI-P5x (serous), technical replicate 2 gave viability, normalised (%) = 64.8; active.
PARP2, rucaparib or vehicle Rucaparib, cell line OCI-P5x (serous), technical replicate 2 showed viability, normalised (%) = 43.5; active.
With PARP2, rucaparib or vehicle Rucaparib, cell line OCI-P5x (serous), technical replicate 3, the values are viability, normalised (%) = 67.6; active.
PARP2, rucaparib or vehicle Rucaparib, cell line OCI-P5x (serous), technical replicate 3 showed viability, normalised (%) = 53.9; active.
For PARP2, rucaparib or vehicle Vehicle, cell line OCI-C5x (clear cell), technical replicate 1, the entry reads viability, normalised (%) = 60.8; active.
With PARP2, rucaparib or vehicle Vehicle, cell line OCI-C5x (clear cell), technical replicate 1, the entry reads viability, normalised (%) = 29.4; active.
For PARP2, rucaparib or vehicle Vehicle, cell line OCI-C5x (clear cell), technical replicate 2 the deposit lists viability, normalised (%) = 39.2; active.
With PARP2, rucaparib or vehicle Vehicle, cell line OCI-C5x (clear cell), technical replicate 2, the values are viability, normalised (%) = 63.3; active.
PARP2, rucaparib or vehicle Vehicle, cell line OCI-C5x (clear cell), technical replicate 3 gave viability, normalised (%) = 61.4; active.
With PARP2, rucaparib or vehicle Vehicle, cell line OCI-C5x (clear cell), technical replicate 3, the entry reads viability, normalised (%) = 56.1; active.
For PARP2, rucaparib or vehicle Vehicle, cell line OCI-P5x (serous), technical replicate 1, the values are viability, normalised (%) = 57.8; active.
PARP2, rucaparib or vehicle Vehicle, cell line OCI-P5x (serous), technical replicate 1 gave viability, normalised (%) = 62.5; active.
PARP2, rucaparib or vehicle Vehicle, cell line OCI-P5x (serous), technical replicate 2 gave viability, normalised (%) = 83.4; inactive.
PARP2, rucaparib or vehicle Vehicle, cell line OCI-P5x (serous), technical replicate 2 gave viability, normalised (%) = 46; active.
For PARP2, rucaparib or vehicle Vehicle, cell line OCI-P5x (serous), technical replicate 3, the entry reads viability, normalised (%) = 75.5; active.
PARP2, rucaparib or vehicle Vehicle, cell line OCI-P5x (serous), technical replicate 3 scored viability, normalised (%) = 73.6; active.
